In PMC12884795:

Key:
KLF4 amino acids 201-479 = test: co-IP; HEK293T cells; IP lysis buffer (20 mM Tris-HCl pH 7.4, 150 mM NaCl, 1 mM EDTA, 1% NP-40), protein A/G agarose beads with specified antibodies at 4 °C overnight, western blot; whole proteins and truncations
[1] = target: KLF4 expressed in HEK293T cells (co-IP); test: as above
[2] = target: KLF4 of the GST pull-down (HEK293T); test: pull-down; GST pull-down; bait and prey from HEK293T lysates (50 mM Na2HPO4 pH 8.0, 300 mM NaCl, 1% Triton X-100); bait held on GST beads and washed, prey supernatant (pre-cleared on GST beads) added at 4 °C overnight; western blot; only the target purified

Binder	binding (KLF4 amino acids 201-479)	binding [1]	binding [2]
TRIM56 expressed in HEK293T cells (co-IP) (protein, UniProt Q9BRZ2 1-755) MVSHGSSPSLLEALSSDFLACKICLEQLRAPKTLPCLHTYCQDCLAQLADGGRVRCPECRETVPVPPEGVASFKTNFFVNGLLDLVKARACGDLRAGKPACALCPLVGGTSTGGPATARCLDCADDLCQACADGHRCTRQTHTHRVVDLVGYRAGWYDEEARERQAAQCPQHPGEALRFLCQPCSQLLCRECRLDPHLDHPCLPLAEAVRARRPGLEGLLAGVDNNLVELEAARRVEKEALARLREQAARVGTQVEEAAEGVLRALLAQKQEVLGQLRAHVEAAEEAARERLAELEGREQVARAAAAFARRVLSLGREAEILSLEGAIAQRLRQLQGCPWAPGPAPCLLPQLELHPGLLDKNCHLLRLSFEEQQPQKDGGKDGAGTQGGEESQSRREDEPKTERQGGVQPQAGDGAQTPKEEKAQTTREEGAQTLEEDRAQTPHEDGGPQPHRGGRPNKKKKFKGRLKSISREPSPALGPNLDGSGLLPRPIFYCSFPTRMPGDKRSPRITGLCPFGPREILVADEQNRALKRFSLNGDYKGTVPVPEGCSPCSVAALQSAVAFSASARLYLINPNGEVQWRRALSLSQASHAVAALPSGDRVAVSVAGHVEVYNMEGSLATRFIPGGKASRGLRALVFLTTSPQGHFVGSDWQQNSVVICDGLGQVVGEYKGPGLHGCQPGSVSVDKKGYIFLTLREVNKVVILDPKGSLLGDFLTAYHGLEKPRVTTMVDGRYLVVSLSNGTIHIFRVRSPDS	binds	binds	–
TRIM56 of the GST pull-down (HEK293T) (protein, UniProt Q9BRZ2 1-755) MVSHGSSPSLLEALSSDFLACKICLEQLRAPKTLPCLHTYCQDCLAQLADGGRVRCPECRETVPVPPEGVASFKTNFFVNGLLDLVKARACGDLRAGKPACALCPLVGGTSTGGPATARCLDCADDLCQACADGHRCTRQTHTHRVVDLVGYRAGWYDEEARERQAAQCPQHPGEALRFLCQPCSQLLCRECRLDPHLDHPCLPLAEAVRARRPGLEGLLAGVDNNLVELEAARRVEKEALARLREQAARVGTQVEEAAEGVLRALLAQKQEVLGQLRAHVEAAEEAARERLAELEGREQVARAAAAFARRVLSLGREAEILSLEGAIAQRLRQLQGCPWAPGPAPCLLPQLELHPGLLDKNCHLLRLSFEEQQPQKDGGKDGAGTQGGEESQSRREDEPKTERQGGVQPQAGDGAQTPKEEKAQTTREEGAQTLEEDRAQTPHEDGGPQPHRGGRPNKKKKFKGRLKSISREPSPALGPNLDGSGLLPRPIFYCSFPTRMPGDKRSPRITGLCPFGPREILVADEQNRALKRFSLNGDYKGTVPVPEGCSPCSVAALQSAVAFSASARLYLINPNGEVQWRRALSLSQASHAVAALPSGDRVAVSVAGHVEVYNMEGSLATRFIPGGKASRGLRALVFLTTSPQGHFVGSDWQQNSVVICDGLGQVVGEYKGPGLHGCQPGSVSVDKKGYIFLTLREVNKVVILDPKGSLLGDFLTAYHGLEKPRVTTMVDGRYLVVSLSNGTIHIFRVRSPDS	–	–	binds
TRIM56 amino acids 206-520 (domain or fragment, UniProt Q9BRZ2 206-520) AEAVRARRPGLEGLLAGVDNNLVELEAARRVEKEALARLREQAARVGTQVEEAAEGVLRALLAQKQEVLGQLRAHVEAAEEAARERLAELEGREQVARAAAAFARRVLSLGREAEILSLEGAIAQRLRQLQGCPWAPGPAPCLLPQLELHPGLLDKNCHLLRLSFEEQQPQKDGGKDGAGTQGGEESQSRREDEPKTERQGGVQPQAGDGAQTPKEEKAQTTREEGAQTLEEDRAQTPHEDGGPQPHRGGRPNKKKKFKGRLKSISREPSPALGPNLDGSGLLPRPIFYCSFPTRMPGDKRSPRITGLCPFGPRE	–	binds	–

Results are given in words; binding and its absence hold for the method and conditions named. In cells and extracts the contact can be indirect. A result given as binding can be weak or reduced; the word gives no strength. For some of these results: Where a sequence is shown, tags or fusion partners need not be part of it.
